Assay [1] deals with T1, LATS1 (human (in MCF-7 cells)) (UniProt O95835).
T1 sequence: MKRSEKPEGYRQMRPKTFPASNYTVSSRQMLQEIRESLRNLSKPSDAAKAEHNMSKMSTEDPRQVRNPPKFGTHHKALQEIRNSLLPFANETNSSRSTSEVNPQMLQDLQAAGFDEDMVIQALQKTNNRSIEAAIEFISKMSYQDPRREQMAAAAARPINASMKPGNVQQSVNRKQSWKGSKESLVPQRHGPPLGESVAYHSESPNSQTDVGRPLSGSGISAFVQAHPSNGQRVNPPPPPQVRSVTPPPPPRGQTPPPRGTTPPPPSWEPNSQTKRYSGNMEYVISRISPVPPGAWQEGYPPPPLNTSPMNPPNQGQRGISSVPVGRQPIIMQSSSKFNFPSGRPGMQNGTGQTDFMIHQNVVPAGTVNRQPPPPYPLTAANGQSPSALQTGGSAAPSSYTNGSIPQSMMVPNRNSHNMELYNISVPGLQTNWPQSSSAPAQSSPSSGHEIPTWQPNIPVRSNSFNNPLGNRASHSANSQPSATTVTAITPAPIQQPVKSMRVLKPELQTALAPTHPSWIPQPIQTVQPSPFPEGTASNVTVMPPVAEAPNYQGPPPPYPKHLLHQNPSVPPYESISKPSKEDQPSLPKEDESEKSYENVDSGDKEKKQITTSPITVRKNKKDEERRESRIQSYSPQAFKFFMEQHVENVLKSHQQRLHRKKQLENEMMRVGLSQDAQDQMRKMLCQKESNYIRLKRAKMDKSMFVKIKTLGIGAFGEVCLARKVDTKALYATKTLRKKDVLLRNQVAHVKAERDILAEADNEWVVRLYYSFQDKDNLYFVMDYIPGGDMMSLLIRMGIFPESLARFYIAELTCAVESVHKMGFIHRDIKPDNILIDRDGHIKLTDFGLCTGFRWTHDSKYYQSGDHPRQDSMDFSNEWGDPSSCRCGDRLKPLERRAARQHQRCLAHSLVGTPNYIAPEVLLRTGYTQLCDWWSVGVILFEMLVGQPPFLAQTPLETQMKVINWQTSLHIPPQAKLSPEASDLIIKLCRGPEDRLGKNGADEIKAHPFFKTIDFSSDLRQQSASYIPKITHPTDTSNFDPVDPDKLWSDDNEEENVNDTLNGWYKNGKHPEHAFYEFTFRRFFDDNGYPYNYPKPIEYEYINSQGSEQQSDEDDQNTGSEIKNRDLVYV
Kind of assay: co-IP; MCF-7 cells lysed in RIPA buffer with protease and phosphatase inhibitors; extracts pre-cleared, 2 µg of the indicated antibodies and protein G-agarose overnight at 4 °C; Western blot. On the technique in general: A western blot detects proteins with antibodies after separation by electrophoresis.

In assay [2] the target is T2, GST-LATS1 (UniProt O95835).
T2 sequence: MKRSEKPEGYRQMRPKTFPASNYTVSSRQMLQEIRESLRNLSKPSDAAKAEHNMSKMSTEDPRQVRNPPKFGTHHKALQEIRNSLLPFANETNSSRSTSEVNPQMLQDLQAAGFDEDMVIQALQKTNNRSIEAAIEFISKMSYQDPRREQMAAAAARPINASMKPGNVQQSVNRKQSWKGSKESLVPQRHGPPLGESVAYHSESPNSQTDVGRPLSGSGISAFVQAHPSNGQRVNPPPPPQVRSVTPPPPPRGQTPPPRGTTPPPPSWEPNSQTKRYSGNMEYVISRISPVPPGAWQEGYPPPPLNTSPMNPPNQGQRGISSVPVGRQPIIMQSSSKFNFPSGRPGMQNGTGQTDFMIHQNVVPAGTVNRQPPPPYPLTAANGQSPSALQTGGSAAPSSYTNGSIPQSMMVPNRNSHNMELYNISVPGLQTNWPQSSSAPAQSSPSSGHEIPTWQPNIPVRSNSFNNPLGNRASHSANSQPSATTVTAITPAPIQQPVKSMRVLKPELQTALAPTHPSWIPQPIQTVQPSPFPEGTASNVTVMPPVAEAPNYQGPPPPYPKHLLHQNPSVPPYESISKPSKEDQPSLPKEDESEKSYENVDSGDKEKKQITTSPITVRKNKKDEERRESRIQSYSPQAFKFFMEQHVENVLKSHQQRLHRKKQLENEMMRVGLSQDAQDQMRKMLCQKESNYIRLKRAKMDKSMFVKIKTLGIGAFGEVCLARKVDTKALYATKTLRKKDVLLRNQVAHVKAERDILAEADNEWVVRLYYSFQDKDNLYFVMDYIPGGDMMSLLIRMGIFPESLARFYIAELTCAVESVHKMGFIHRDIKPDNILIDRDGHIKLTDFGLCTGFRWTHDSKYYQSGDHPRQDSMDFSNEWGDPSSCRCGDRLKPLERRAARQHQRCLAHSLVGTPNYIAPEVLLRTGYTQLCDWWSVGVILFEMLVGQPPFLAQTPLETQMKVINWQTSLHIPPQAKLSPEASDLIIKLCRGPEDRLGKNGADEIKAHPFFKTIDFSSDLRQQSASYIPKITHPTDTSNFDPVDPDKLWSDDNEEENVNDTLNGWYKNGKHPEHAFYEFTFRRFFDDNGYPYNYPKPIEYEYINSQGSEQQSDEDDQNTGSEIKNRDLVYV
Kind of assay: pull-down; HERC4 co-expressed with GST-LATS1 constructs in MCF-7 cells; GST-tagged bait on GST beads (Pierce GST Protein Interaction Pull-Down Kit), prey sample at 4 °C for at least 1 h; Western blot.

Assay [3] concerns the target T3, GST-LATS1 deletion mutant, C-terminus (aa 701-1,130) (UniProt O95835).
T3 sequence: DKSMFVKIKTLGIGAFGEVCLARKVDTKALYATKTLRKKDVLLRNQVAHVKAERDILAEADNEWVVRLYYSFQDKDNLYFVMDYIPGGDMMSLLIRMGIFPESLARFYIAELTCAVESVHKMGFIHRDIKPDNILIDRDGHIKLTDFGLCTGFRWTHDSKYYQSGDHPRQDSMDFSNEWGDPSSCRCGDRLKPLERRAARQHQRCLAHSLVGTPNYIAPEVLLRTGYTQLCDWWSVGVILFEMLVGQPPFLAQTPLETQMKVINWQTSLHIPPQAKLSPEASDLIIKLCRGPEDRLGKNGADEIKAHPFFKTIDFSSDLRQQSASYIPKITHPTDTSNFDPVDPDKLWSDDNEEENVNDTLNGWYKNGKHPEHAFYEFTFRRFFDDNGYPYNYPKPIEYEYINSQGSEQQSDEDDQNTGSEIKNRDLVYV
The description is as above.

No constants are given. Whether binding was seen depends on the method and setting. Binding seen in cells or lysates may run through a third protein. Some entries that bind do so weakly or less than the wild type. For part of these data: Sequences can lack the tags named with a protein.

B1: HERC4 (enzyme, UniProt Q5GLZ8 1-1057)
chain: MLCWGNASFGQLGLGGIDEEIVLEPRKSDFFINKRVRDVGCGLRHTVFVLDDGTVYTCGCNDLGQLGHEKSRKKPEQVVALDAQNIVAVSCGEAHTLALNDKGQVYAWGLDSDGQLGLVGSEECIRVPRNIKSLSDIQIVQVACGYYHSLALSKASEVFCWGQNKYGQLGLGTDCKKQTSPQLLKSLLGIPFMQVAAGGAHSFVLTLSGAIFGWGRNKFGQLGLNDENDRYVPNLLKSLRSQKIVYICCGEDHTAALTKEGGVFTFGAGGYGQLGHNSTSHEINPRKVFELMGSIVTEIACGRQHTSAFVPSSGRIYSFGLGGNGQLGTGSTSNRKSPFTVKGNWYPYNGQCLPDIDSEEYFCVKRIFSGGDQSFSHYSSPQNCGPPDDFRCPNPTKQIWTVNEALIQKWLSYPSGRFPVEIANEIDGTFSSSGCLNGSFLAVSNDDHYRTGTRFSGVDMNAARLLFHKLIQPDHPQISQQVAASLEKNLIPKLTSSLPDVEALRFYLTLPECPLMSDSNNFTTIAIPFGTALVNLEKAPLKVLENWWSVLEPPLFLKIVELFKEVVVHLLKLYKIGIPPSERRIFNSFLHTALKVLEILHRVNEKMGQIIQYDKFYIHEVQELIDIRNDYINWVQQQAYGMDVNHGLTELADIPVTICTYPFVFDAQAKTTLLQTDAVLQMQMAIDQAHRQNVSSLFLPVIESVNPCLILVVRRENIVGDAMEVLRKTKNIDYKKPLKVIFVGEDAVDAGGVRKEFFLLIMRELLDPKYGMFRYYEDSRLIWFSDKTFEDSDLFHLIGVICGLAIYNCTIVDLHFPLALYKKLLKKKPSLDDLKELMPDVGRSMQQLLDYPEDDIEETFCLNFTITVENFGATEVKELVLNGADTAVNKQNRQEFVDAYVDYIFNKSVASLFDAFHAGFHKVCGGKVLLLFQPNELQAMVIGNTNYDWKELEKNTEYKGEYWAEHPTIKIFWEVFHELPLEKKKQFLLFLTGSDRIPILGMKSLKLVIQSTGGGEEYLPVSHTCFNLLDLPKYTEKETLRSKLIQAIDHNEGFSLI
Regarding B1, the binding entry in assay [1] is recorded as “binds”.

B2: HERC4 (expressed from a vector with human HERC4 cDNA) (enzyme, UniProt Q5GLZ8 1-1057)
chain: MLCWGNASFGQLGLGGIDEEIVLEPRKSDFFINKRVRDVGCGLRHTVFVLDDGTVYTCGCNDLGQLGHEKSRKKPEQVVALDAQNIVAVSCGEAHTLALNDKGQVYAWGLDSDGQLGLVGSEECIRVPRNIKSLSDIQIVQVACGYYHSLALSKASEVFCWGQNKYGQLGLGTDCKKQTSPQLLKSLLGIPFMQVAAGGAHSFVLTLSGAIFGWGRNKFGQLGLNDENDRYVPNLLKSLRSQKIVYICCGEDHTAALTKEGGVFTFGAGGYGQLGHNSTSHEINPRKVFELMGSIVTEIACGRQHTSAFVPSSGRIYSFGLGGNGQLGTGSTSNRKSPFTVKGNWYPYNGQCLPDIDSEEYFCVKRIFSGGDQSFSHYSSPQNCGPPDDFRCPNPTKQIWTVNEALIQKWLSYPSGRFPVEIANEIDGTFSSSGCLNGSFLAVSNDDHYRTGTRFSGVDMNAARLLFHKLIQPDHPQISQQVAASLEKNLIPKLTSSLPDVEALRFYLTLPECPLMSDSNNFTTIAIPFGTALVNLEKAPLKVLENWWSVLEPPLFLKIVELFKEVVVHLLKLYKIGIPPSERRIFNSFLHTALKVLEILHRVNEKMGQIIQYDKFYIHEVQELIDIRNDYINWVQQQAYGMDVNHGLTELADIPVTICTYPFVFDAQAKTTLLQTDAVLQMQMAIDQAHRQNVSSLFLPVIESVNPCLILVVRRENIVGDAMEVLRKTKNIDYKKPLKVIFVGEDAVDAGGVRKEFFLLIMRELLDPKYGMFRYYEDSRLIWFSDKTFEDSDLFHLIGVICGLAIYNCTIVDLHFPLALYKKLLKKKPSLDDLKELMPDVGRSMQQLLDYPEDDIEETFCLNFTITVENFGATEVKELVLNGADTAVNKQNRQEFVDAYVDYIFNKSVASLFDAFHAGFHKVCGGKVLLLFQPNELQAMVIGNTNYDWKELEKNTEYKGEYWAEHPTIKIFWEVFHELPLEKKKQFLLFLTGSDRIPILGMKSLKLVIQSTGGGEEYLPVSHTCFNLLDLPKYTEKETLRSKLIQAIDHNEGFSLI
Take B2: the binding result in assay [2] and in assay [3] was “binds” each time.

Source of the values: publication PMC6626598.
